The record followed here is the supplement of paper PMC12819154, “High-throughput peptide-centric local stability assay extends protein–ligand identification to membrane proteins, tissues and bacteria” (Nature Structural & Molecular Biology, 2025).

The chains behind the UniProt entries cited, without tags or fusion partners. Where a name states a change or a piece, a line headed by the entry shows the natural chain unless it says otherwise.
UniProt O75459: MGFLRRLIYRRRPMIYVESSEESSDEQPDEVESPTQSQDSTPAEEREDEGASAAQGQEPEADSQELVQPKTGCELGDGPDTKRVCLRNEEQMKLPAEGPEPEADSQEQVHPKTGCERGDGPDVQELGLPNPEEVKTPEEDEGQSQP
UniProt O95861: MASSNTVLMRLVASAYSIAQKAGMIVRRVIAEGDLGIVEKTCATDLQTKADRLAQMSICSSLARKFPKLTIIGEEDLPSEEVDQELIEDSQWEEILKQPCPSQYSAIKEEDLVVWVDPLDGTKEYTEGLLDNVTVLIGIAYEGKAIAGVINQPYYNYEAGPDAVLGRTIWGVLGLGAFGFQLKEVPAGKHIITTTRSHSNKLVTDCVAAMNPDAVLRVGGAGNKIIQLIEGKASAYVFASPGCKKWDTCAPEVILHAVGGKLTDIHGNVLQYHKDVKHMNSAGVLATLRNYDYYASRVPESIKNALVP
UniProt O95602, whole entry: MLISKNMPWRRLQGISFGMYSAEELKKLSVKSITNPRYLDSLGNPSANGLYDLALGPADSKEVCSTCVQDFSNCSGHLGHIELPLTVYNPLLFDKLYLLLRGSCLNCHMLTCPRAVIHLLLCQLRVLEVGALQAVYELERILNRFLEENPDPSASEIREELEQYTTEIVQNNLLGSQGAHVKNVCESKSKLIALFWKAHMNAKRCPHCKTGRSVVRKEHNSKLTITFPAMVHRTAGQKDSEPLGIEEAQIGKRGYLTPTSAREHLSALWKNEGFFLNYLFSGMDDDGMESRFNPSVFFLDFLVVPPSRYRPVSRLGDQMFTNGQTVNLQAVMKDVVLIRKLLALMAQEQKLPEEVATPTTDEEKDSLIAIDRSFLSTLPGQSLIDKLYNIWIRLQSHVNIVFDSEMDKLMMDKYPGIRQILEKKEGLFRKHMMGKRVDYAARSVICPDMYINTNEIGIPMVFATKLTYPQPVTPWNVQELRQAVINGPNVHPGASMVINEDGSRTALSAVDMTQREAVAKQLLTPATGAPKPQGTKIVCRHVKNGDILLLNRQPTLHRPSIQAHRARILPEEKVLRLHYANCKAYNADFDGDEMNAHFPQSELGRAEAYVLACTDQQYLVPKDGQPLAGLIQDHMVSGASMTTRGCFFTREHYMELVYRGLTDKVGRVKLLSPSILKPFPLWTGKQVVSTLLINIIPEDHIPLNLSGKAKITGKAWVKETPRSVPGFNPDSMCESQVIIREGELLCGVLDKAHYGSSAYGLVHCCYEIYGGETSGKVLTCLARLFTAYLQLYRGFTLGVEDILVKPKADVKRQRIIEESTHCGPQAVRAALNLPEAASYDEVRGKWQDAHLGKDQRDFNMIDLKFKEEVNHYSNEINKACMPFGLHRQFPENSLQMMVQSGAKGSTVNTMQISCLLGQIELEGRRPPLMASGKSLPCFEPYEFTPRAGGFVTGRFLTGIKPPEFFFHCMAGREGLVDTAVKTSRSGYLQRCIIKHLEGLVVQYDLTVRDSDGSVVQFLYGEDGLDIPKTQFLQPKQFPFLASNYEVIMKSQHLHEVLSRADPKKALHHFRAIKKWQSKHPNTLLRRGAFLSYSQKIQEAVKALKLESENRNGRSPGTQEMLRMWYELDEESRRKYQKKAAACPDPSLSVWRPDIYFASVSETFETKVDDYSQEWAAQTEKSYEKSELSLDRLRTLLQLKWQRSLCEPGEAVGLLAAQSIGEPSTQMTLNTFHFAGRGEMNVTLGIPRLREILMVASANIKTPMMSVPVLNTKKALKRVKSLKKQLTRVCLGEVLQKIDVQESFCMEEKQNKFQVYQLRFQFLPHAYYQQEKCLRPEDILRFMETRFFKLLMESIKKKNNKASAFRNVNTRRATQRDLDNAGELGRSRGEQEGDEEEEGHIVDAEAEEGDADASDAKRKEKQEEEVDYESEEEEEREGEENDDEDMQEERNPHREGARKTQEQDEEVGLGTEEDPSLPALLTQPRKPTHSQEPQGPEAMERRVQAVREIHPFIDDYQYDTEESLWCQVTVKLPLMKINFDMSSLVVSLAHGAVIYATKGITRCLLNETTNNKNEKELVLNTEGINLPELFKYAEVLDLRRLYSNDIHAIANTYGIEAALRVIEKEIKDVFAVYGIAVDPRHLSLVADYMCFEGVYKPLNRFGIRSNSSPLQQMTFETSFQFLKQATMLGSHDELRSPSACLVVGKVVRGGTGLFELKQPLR
UniProt O94868: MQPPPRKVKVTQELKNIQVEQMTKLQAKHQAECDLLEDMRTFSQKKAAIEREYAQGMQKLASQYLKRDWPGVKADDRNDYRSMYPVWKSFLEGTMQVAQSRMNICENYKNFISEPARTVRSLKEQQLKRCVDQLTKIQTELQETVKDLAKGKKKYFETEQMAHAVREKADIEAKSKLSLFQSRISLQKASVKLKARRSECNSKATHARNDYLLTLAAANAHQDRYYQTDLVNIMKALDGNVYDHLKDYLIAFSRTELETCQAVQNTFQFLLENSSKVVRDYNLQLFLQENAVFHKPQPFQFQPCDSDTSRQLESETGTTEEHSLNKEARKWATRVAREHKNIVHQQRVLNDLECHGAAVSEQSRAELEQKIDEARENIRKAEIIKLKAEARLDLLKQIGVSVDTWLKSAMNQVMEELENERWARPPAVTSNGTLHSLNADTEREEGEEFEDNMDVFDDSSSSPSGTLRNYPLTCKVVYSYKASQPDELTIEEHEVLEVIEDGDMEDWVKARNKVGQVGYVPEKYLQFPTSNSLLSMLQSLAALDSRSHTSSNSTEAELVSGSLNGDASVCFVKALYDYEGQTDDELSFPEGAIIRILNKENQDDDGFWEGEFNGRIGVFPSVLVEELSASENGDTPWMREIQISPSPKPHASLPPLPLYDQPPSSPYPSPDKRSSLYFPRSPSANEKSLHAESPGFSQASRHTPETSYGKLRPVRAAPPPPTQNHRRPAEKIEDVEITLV
UniProt O95153: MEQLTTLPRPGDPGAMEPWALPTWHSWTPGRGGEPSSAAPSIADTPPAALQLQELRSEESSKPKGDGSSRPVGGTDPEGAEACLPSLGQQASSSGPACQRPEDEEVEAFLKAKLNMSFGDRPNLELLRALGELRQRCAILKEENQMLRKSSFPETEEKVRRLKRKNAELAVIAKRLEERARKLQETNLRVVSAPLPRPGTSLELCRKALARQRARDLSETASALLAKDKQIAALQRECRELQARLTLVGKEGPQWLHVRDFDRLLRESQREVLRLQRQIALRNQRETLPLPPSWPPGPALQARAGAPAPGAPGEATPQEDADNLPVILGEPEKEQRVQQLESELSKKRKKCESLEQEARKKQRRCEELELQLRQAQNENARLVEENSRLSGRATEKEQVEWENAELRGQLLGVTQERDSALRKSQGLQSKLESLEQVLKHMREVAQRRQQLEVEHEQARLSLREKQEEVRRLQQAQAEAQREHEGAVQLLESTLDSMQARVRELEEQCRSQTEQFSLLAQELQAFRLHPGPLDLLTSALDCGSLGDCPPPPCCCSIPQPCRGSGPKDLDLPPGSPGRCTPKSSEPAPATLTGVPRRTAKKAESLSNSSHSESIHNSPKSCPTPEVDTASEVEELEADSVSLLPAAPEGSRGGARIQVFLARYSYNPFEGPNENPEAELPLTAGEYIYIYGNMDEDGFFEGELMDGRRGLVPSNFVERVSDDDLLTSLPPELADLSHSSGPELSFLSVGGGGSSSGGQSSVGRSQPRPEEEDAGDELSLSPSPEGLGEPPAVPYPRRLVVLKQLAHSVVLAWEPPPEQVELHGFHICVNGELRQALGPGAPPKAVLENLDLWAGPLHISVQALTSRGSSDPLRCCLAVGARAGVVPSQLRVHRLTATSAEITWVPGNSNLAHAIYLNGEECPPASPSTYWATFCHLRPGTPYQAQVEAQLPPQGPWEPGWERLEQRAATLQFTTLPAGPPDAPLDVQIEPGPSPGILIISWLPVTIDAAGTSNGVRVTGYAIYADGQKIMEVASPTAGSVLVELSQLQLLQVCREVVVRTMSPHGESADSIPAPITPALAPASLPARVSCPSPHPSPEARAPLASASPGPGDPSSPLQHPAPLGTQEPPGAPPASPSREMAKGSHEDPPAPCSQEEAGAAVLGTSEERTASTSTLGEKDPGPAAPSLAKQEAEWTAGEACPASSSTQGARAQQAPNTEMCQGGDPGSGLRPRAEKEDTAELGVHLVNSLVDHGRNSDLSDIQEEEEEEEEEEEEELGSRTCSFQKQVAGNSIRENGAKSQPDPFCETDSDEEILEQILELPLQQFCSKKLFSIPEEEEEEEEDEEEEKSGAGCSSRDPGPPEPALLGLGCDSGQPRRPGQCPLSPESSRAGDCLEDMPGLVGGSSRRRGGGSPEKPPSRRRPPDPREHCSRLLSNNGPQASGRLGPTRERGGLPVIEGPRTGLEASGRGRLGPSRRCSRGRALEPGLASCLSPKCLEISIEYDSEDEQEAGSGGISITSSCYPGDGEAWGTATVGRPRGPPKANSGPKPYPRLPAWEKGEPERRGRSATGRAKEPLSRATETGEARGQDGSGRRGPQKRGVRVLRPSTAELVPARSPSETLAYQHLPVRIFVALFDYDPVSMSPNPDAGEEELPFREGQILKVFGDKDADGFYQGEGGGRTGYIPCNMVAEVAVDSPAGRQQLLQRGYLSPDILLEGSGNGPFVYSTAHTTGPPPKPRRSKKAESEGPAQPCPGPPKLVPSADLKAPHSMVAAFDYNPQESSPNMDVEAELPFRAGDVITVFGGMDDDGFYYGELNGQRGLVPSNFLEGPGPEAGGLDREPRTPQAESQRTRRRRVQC
UniProt O95785: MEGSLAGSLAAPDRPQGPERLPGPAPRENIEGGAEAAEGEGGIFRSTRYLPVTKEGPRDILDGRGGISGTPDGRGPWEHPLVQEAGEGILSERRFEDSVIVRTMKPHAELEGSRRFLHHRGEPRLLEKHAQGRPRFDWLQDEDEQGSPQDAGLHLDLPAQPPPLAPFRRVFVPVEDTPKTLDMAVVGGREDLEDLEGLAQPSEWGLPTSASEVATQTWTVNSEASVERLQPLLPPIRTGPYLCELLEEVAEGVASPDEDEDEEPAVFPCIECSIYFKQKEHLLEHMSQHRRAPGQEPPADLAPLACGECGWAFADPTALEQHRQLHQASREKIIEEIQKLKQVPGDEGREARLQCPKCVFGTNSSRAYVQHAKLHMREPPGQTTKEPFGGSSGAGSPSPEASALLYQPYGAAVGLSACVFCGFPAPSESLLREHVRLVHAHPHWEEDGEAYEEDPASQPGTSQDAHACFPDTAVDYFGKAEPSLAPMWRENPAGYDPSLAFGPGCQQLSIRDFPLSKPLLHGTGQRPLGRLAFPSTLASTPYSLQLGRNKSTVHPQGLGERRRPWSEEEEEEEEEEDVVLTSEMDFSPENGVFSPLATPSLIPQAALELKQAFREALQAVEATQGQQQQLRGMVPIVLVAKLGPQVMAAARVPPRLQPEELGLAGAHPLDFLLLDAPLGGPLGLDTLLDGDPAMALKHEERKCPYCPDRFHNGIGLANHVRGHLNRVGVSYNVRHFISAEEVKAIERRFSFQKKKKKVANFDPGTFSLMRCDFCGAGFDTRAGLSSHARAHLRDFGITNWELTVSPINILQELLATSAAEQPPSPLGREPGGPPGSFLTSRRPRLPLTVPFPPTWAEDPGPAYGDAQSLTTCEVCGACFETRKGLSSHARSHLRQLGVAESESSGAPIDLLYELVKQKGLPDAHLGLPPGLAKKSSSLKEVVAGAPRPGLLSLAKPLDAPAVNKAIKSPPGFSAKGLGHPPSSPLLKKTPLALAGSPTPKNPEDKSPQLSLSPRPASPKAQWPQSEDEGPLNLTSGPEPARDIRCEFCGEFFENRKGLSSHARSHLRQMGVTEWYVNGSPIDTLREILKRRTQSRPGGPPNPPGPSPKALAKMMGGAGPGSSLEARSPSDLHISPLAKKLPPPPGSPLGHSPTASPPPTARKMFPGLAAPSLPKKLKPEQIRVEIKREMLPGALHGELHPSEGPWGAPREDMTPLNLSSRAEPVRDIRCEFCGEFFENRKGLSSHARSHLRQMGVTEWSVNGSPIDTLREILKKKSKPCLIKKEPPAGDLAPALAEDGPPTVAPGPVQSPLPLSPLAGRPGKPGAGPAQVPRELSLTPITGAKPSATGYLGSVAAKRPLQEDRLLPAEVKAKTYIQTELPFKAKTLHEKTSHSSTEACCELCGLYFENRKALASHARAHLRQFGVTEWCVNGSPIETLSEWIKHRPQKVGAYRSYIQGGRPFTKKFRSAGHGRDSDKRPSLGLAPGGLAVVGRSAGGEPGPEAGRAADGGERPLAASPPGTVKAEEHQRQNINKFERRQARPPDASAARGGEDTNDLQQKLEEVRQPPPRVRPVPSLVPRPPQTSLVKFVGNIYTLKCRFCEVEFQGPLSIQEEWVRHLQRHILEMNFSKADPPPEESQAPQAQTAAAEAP
UniProt O75947: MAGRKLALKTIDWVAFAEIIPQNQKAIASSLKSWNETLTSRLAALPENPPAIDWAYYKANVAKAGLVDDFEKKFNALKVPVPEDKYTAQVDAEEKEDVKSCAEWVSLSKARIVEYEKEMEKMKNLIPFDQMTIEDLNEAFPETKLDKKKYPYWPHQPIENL

The other results are listed elsewhere or left out. Small differences around the control level are noise.

Compound in this test: CN[C@@H]1C[C@H]2O[C@@](C)([C@@H]1OC)n1c3ccccc3c3c4c(c5c6ccccc6n2c5c31)C(=O)NC4 [staurosporine]
In words: log2 fold change of tryptic peptide abundance, ligand vs vehicle (limited proteolysis) (log2 ratio); higher = more trypsin-susceptible (destabilized). Conditions: ligand concentration: 20 uM; sample: K562 cleared lysate; digestion: 4 min, 22 C (HT-PELSA RT4min, Orbitrap Astral).
“PSMD10 (peptide sequence: LLVSQGASIYIENKEEK, peptide start residue: 190) (UniProt O75832)”: the log2 fold change is -0.28.

Consider “LYPLA1 (peptide sequence: QFIDKLLPPID, peptide start residue: 220) (UniProt O75608)”, for which the log2 fold change is -0.267. In the case of “TTC4 (peptide sequence: GGFHEDQWEKEFEK, peptide start residue: 28) (UniProt O95801)”, the log2 fold change is -0.526. In the case of “ZFPL1 (peptide sequence: DDDRTPGLHGDCDDDKYR, peptide start residue: 219) (UniProt O95159)”, the log2 fold change is -0.337. Turning to “CEP152 (peptide sequence: LIQQLEKEWQSK, peptide start residue: 765) (UniProt O94986)”, the log2 fold change was -0.153. On to “PAGE1 (peptide sequence: TGCELGDGPDTKR, peptide start residue: 71) (UniProt O75459)”, for which the log2 fold change is -0.178. For the target “BPNT1 (peptide sequence: NYDYYASR, peptide start residue: 290) (UniProt O95861)”, the log2 fold change was determined as 0.305. As to “FARP2 (peptide sequence: GEIEGTYR, peptide start residue: 2) (UniProt O94887)”, the log2 fold change was -0.143. As for “RNF8 (peptide sequence: GEPGFFVTGDR, peptide start residue: 2) (UniProt O76064)”, the log2 fold change was -0.274. With “POLR1A (peptide sequence: DFNMIDLK, peptide start residue: 857) (UniProt O95602)”, the log2 fold change turned out to be 0.584. Consider “GRAP2 (peptide sequence: HEDDVQHFK, peptide start residue: 98) (UniProt O75791)”, for which the log2 fold change worked out at 0.789. For the target “FCHSD2 (peptide sequence: SAMNQVMEELENER, peptide start residue: 408) (UniProt O94868)”, the log2 fold change is 0.599. To “CNOT4 (peptide sequence: KALADLIEK, peptide start residue: 413) (UniProt O95628)” belongs 0.169. In the case of “UniProt O95153 (peptide sequence: GGLPVIEGPR, peptide start residue: 1450)” it was -0.0186. As to “PGLS (peptide sequence: LLTVPFEK, peptide start residue: 247) (UniProt O95336)”, the log2 fold change turned out to be 0.206. To “VPS26A (peptide sequence: YFLNLVLVDEEDRR, peptide start residue: 272) (UniProt O75436)” belongs -0.394; to “WIZ (peptide sequence: PGLLSLAKPLDAPAVNK, peptide start residue: 948) (UniProt O95785)”, -0.717. On to “CSDE1 (peptide sequence: VGDDVEFEVSSDRR, peptide start residue: 65) (UniProt O75534)”, for which the log2 fold change was -0.189. In the case of “PMPCB (peptide sequence: SNMCWLRD, peptide start residue: 482) (UniProt O75439)”, the log2 fold change amounted to 0.423. To “ARL6IP5 (peptide sequence: AWDDFFPGSDR, peptide start residue: 10) (UniProt O75915)” belongs 0.128; to “TACC1 (peptide sequence: DGHATDEEK, peptide start residue: 500) (UniProt O75410)”, 1.03; to “UniProt O75879 (peptide sequence: LGCTMSMR, peptide start residue: 320)”, 0.296.

With “CCNDBP1 (peptide sequence: AFIAVYYLLPK, peptide start residue: 98) (UniProt O95273)”, the log2 fold change was -0.147. Regarding “UniProt O95551 (peptide sequence: ALNSYFEPPVEESALER, peptide start residue: 57)”, the log2 fold change was -0.2.

For “STAM2 (peptide sequence: KSEPEPVYIDEDKMDR, peptide start residue: 284) (UniProt O75886)”, the log2 fold change was 0.312. Turning to “UniProt O75947 (peptide sequence: SWNETLTSR, peptide start residue: 33)”, the log2 fold change is -0.0978. In the case of “SEC24D (peptide sequence: GGQVYATNTR, peptide start residue: 279) (UniProt O94855)” it was -0.215.

Turning to “C6orf47 (peptide sequence: WDHVDSGGTR, peptide start residue: 117) (UniProt O95873)”, the log2 fold change worked out at 0.115.
